The nature of this assay: qHTS Assay to Find Inhibitors of Chronic Active B-Cell Receptor Signaling. Conditions: ABC-DLBCL IkBa-CBG/CBR reporter, luminescence ratio (green luciferase fused to IkBa over red control in TMD8 lymphoma cells), 4 h. The gist of the method: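 TMD8 human ABC-DLBCL cells with doxycycline-inducible IκBα–green luciferase fusion and unfused red luciferase, in 0.5% FBS medium; compounds up to 46 uM, 4 h at 37C. Green/red luminescence ratio, filter-overlap corrected, fitted to concentration-response curves.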
A general note: In qHTS, concentration-response curves come from the screen itself.

[1] abbreviates: measured here: CBR red luminescence, cell number.
The mark [2] stands for this setting: measured here: IkBa-CBG green luminescence.

SMILES strings stand for the structures. The list shows a part of the results. These are further read-outs of the screen, such as a control signal, another cell line or another target. No call is given for them. Most of these compounds were active or inconclusive in the main read-out, so they are no random draw. Potencies come from curve fits of mixed quality, noted in brackets.

One may read the AC50 as the concentration at which the activity in the assay is half-maximal.

As to `Cc1ccc(S(=O)(=O)N(C)CC(=O)NC2CCCC2)cc1`, the half-maximal activity concentration (AC50) under setting [1] was 32.6 µM [falling, single point].
Same read-out and setting: the figure for `O=S(=O)(NCCc1ccccc1)c1ccc(Cl)nc1` is 32.6 µM [rising, single point]; for `NC(=O)c1nsnc1-c1ccccc1O` it is 9.2 µM [falling, partial curve, poor fit]; for `CC1(c2ccccc2)NC(=O)N(CC(=O)Nc2nc(-c3ccccn3)cs2)C1=O` (configuration not stated) it is 16.4 µM [falling, partial curve, poor fit].
Regarding `CCOC(=O)C1=C(c2ccccc2)OC(N)=C(C#N)C1c1ccc(Br)s1` (configuration not stated), the AC50 under setting [1] is 13 µM [falling, partial curve, poor fit].
Still for that read-out and setting: the figure for `Cc1ccc(-c2csc(NC(=O)c3ccc(Br)cc3)c2C(=O)O)cc1` is 0.112 µM [falling, full curve].
On to `CCOC(=O)c1ccc(NC(=O)c2cccc3c2C(=O)N(CC2CCCO2)C3)cc1` (configuration not stated), for which the AC50 under setting [1] was 0.891 µM [rising, full curve, poor fit].
Same read-out and setting: with `CC(=O)N/C(=C\c1ccccc1)C(=O)OC/C=C/c1ccccc1` the figure was 11.2 µM [falling, partial curve]; with `C/C(=N\NC(=O)c1ccccc1N)c1ccc(NC(=O)Cc2ccccc2)cc1`, 35.5 µM [falling, partial curve, poor fit].
Still for that read-out and setting: with `Clc1ccc(OCc2nc3ccccc3[nH]2)cc1` the figure was 25.1 µM [falling, single point].
The same measure, in the same setting: with `COc1ccc(NC(=O)c2cc3ccccc3o2)cn1` the figure was 17.8 µM [falling, single point]; with `Brc1ccc(-c2csc(N3CCCCC3)n2)cc1`, 0.103 µM [falling, full curve, poor fit].
With `Oc1ccc(C=Nc2cccc3ncccc23)c(O)c1`, the concentration at half-maximal activity (AC50) under setting [1] is 14.6 µM [rising, partial curve, poor fit].
On the same count and under the same terms, with `CCNc1nc(NC(C)C)nc(Oc2ccc(/C=N/O)cc2)n1` the figure was 25.9 µM [rising, single point].
Consider `Cc1ccc(C2(C(F)(F)F)NC(=O)N3C(=C2C#N)Nc2ccccc23)cc1` (configuration not stated), for which, under setting [1], the AC50 was 0.13 µM [falling, partial curve, poor fit].
For the molecule `CC(=O)c1ccc(NC(=O)C(C)OC(=O)/C=C/c2ccco2)cc1` (configuration not stated), the AC50 is, setting by setting: under setting [1], 29.1 µM [rising, single point]; under setting [2], 18.4 µM [falling, single point].
`COc1ccc(C2(C(=O)c3ccccc3)C(=O)c3ccccc3C2=O)cc1`: the half-maximal activity concentration (AC50) under setting [1] was 2.82 µM [rising, single point].
Take `Cc1ccc(C)c(N2CCN(S(=O)(=O)c3ccc4c(c3)C(C)(C)C(=O)N4C)CC2)c1`: the AC50 under setting [2] is 11.2 µM [rising, partial curve, poor fit].
In the case of `O=C1C=C(NCc2ccco2)C2(CCCCC2)O1`, under setting [1], the half-maximal activity concentration (AC50) was 4.61 µM [rising, partial curve, poor fit].
Same read-out and setting: with `Cc1cc(C(=O)CSc2n[nH]c(N)n2)c(C)n1-c1cc(F)ccc1F` the figure was 11.6 µM [rising, partial curve, poor fit]; with `COc1ccc(-n2c(Cn3c(=O)sc4ccccc43)nnc2SCC(=O)N2CCCC2)cc1`, 4.61 µM [rising, partial curve]; with `CC1CCCC(NC(=O)C2CCN(S(=O)(=O)N3CCC4(CC3)OCCO4)CC2)C1C` (configuration not stated), 3.55 µM [rising, partial curve, poor fit].
Take `CCC(=O)Nc1ccc2c(c1)ncn2-c1ccccc1C`: the AC50 under setting [2] was 35.5 µM [falling, partial curve, poor fit].
As to `O=C(COc1ccc(Br)cc1CO)Nc1ccc(S(=O)(=O)N2CCCCC2)cc1`, under setting [1], the AC50 was 23.1 µM [falling, single point].
On the same count and under the same terms, the figure for `O=C(NNC(=O)c1sc2ccccc2c1Cl)Nc1ccc(Cl)cc1` is 12.6 µM [rising, single point]; for `O=C(Nc1cccc(Br)c1)c1ccccc1-c1ccccc1` it is 6.51 µM [falling, full curve, poor fit].
The same measure, in the same setting: with `COc1ccc2[nH]c(C)c(CCNC(=S)Nc3cccc(C)c3)c2c1` the figure was 1.3 µM [rising, partial curve, poor fit]; with `CN1N=C(c2ccc(F)c(F)c2)CSC1=NCc1ccccc1`, 1 µM [rising, partial curve, poor fit].
The same measure, in the same setting: the figure for `O=[N+]([O-])c1cccc(N=NN(CCO)c2cccc([N+](=O)[O-])c2)c1` is 14.6 µM [rising, partial curve].
In the case of `Cc1ccc(NC(=O)c2ccc(NS(=O)(=O)c3cccc4cccnc34)cc2)cc1`, the AC50 under setting [1] was 17.8 µM [falling, single point].
As for `COc1ccc(N2C(=O)C(Cl)=C(N3CCCC3)C2=O)cc1`, the AC50 under setting [1] is 35.5 µM [rising, single point].
Same read-out and setting: with `COc1ccc(OC)c(C(C[N+](=O)[O-])c2c(C)cc3ccccn23)c1` (configuration not stated) the figure was 3.55 µM [falling, full curve].
Same read-out and setting: the figure for `O=C(/C=C/c1ccc([N+](=O)[O-])cc1)NCCc1ccccc1` is 14.1 µM [rising, single point].
With `COc1ccc2c(c1)OC(=O)CC2c1cc(OC)c(OC)c(OC)c1` (configuration not stated), the concentration at half-maximal activity (AC50) under setting [1] was 25.9 µM [rising, single point] and the half-maximal activity concentration (AC50) under setting [2] was 23.1 µM [falling, partial curve, poor fit].
As for `O=C(CCNc1n[nH]c(=O)[nH]c1=O)N/N=C/c1ccc(C(F)(F)F)cc1`, under setting [1], the AC50 is 0.708 µM [rising, full curve, poor fit].
On the same count and under the same terms, the figure for `CCNS(=O)(=O)c1ccc(NC(=O)Nc2cccc(OC)c2)cc1` is 18.4 µM [falling, single point].
On the same count and under the same terms, with `Cc1oc(-c2ccc(Cl)cc2)cc1C(=O)/C(C#N)=C/Nc1ccccc1` the figure was 2.82 µM [rising, partial curve].
Turning to `COc1ccc(/C=N/NC(=O)CCn2cnc(-c3ccccc3)c2-c2ccccc2)cc1OC`, the AC50 is 9.2 µM [rising, partial curve, poor fit] under setting [1] and 16.4 µM [falling, partial curve] under setting [2].
In the case of `COc1ccc(Nc2cc(C(=O)N3CCc4ccccc4C3)c3ccccc3n2)c(OC)c1`, the AC50 under setting [1] was 17.8 µM [falling, single point].
Still for that read-out and setting: the figure for `Brc1ccc(OCc2ccccc2)c(CNCc2ccncc2)c1` is 35.5 µM [falling, single point].
On to `CCOC(=O)c1c(OCC)[nH]c2ccc(O)cc12`, for which the AC50 under setting [1] is 0.82 µM [falling, full curve, poor fit].
As for `CCN(CCNC(=O)c1ccc2nc(-c3ccccc3NC(C)=O)c(=O)[nH]c2c1)c1ccccc1`, the AC50 under setting [1] was 10.3 µM [falling, partial curve, poor fit].
Consider `CCNC(=S)N/N=C/c1sc(N2CCCCC2)nc1-c1cccs1`, for which the AC50 under setting [1] is 6.51 µM [falling, single point].
Same read-out and setting: the figure for `CCOc1ccccc1NC(=O)CN1CCC(C(=O)c2ccc(OC)cc2)CC1` is 6.31 µM [rising, single point]; for `CCOC(=O)c1c(C)[nH]c(C)c1C(=O)COc1ncnc2cc([N+](=O)[O-])ccc12` it is 10 µM [falling, partial curve].
On the same count and under the same terms, the figure for `CCCCNc1c([N+](=O)[O-])cc(C)cc1[N+](=O)[O-]` is 25.1 µM [rising, partial curve]; for `CC(=O)Nc1ccc(NC(=O)C(C)OC(=O)CCCN2C(=O)c3cccc4cccc(c34)C2=O)cc1` (configuration not stated) it is 3.66 µM [rising, full curve].
On to `CSC(=NNC(=O)c1ccc(O)cc1)SC`, for which the half-maximal activity concentration (AC50) under setting [1] is 10.3 µM [falling, partial curve, poor fit].
Same read-out and setting: the figure for `COc1ccc(NC(=S)NC(NC(C)=O)C(Cl)(Cl)Cl)c([N+](=O)[O-])c1` (configuration not stated) is 8.2 µM [falling, partial curve, poor fit]; for `O=C1C=C(c2ccc3ncccc3c2)C[C@@H](c2ccc(Cl)cc2)C1` it is 29.1 µM [falling, single point].
The same measure, in the same setting: the figure for `COc1ccc2c(C(=O)c3ccc(C)cc3)n(Cc3ccc(C(N)=O)cc3)[n+]([O-])c2c1` is 1.03 µM [falling, full curve]; for `COc1ccc(/C=N/NC(=O)c2ccc(F)cc2)cc1CN1CCc2cc(OC)c(OC)cc2C1C` (configuration not stated) it is 5.62 µM [falling, partial curve].
The same measure, in the same setting: the figure for `COc1ccc(NC(=O)CCNC(C)=O)cc1NS(=O)(=O)c1ccc(F)cc1` is 3.26 µM [falling, partial curve, poor fit]; for `Cn1ccnc1Sc1cc(NCCCO)c([N+](=O)[O-])c2nonc12` it is 20 µM [falling, partial curve, poor fit]; for `COc1cccc(C(=O)N/N=C/c2ccc(OC)c(COc3ccccc3C(N)=O)c2)c1` it is 7.08 µM [rising, partial curve].
`COc1ccc(OC)c(S(=O)(=O)N2Cc3ccccc3CC2C(=O)Nc2nccs2)c1` (configuration not stated): under setting [1], the AC50 is 0.82 µM [rising, full curve, poor fit].
On to `Cc1cccc(Nc2nnc(SC/C(O)=C(\C#N)c3nc4ccccc4[nH]3)s2)c1`, for which the AC50 under setting [1] is 6.51 µM [rising, full curve] and the half-maximal activity concentration (AC50) under setting [2] is 29.1 µM [falling, single point].
As to `CC(C(=O)Nc1ccccc1-c1ccccc1)N1CCN(S(=O)(=O)c2ccccc2)CC1` (configuration not stated), the AC50 under setting [1] is 1.3 µM [falling, full curve].
The same measure, in the same setting: the figure for `Cc1ccc(-n2nnnc2-c2cnc3cc4c(cc3c2C)OCO4)cc1` is 0.0517 µM [rising, full curve].
`COC(=O)C1=C(C)N(Cc2ccccc2)C(=NCc2ccccc2)N[C@H]1c1cccc(F)c1`: the AC50 was 8.91 µM [falling, partial curve, poor fit] under setting [1] and 31.6 µM [rising, single point] under setting [2].
As to `CCOC(=O)N1CCC(NC(=O)CS(=O)(=O)Cc2nc(-c3ccccc3C)oc2C)CC1`, the AC50 reads like this: under setting [1], 20.6 µM [rising, single point]; under setting [2], 20.6 µM [falling, partial curve, poor fit].

These data come from PubChem BioAssay AID493014 (National Center for Advancing Translational Sciences (NCATS), 2011).
